Results taken from PMC12631878, “Single‐Cell Transcriptome Analysis Reveals That Hmga2 Regulates Neuroinflammation and Retinal Function by Modulating Müller Cell Autophagy Through PI3K/AKT Signaling Following MCAO‐Induced Retinal Ischemia” (Advanced Science, 2025).
Results are given in words; binding and its absence hold for the method and conditions named. In cells and extracts the contact can be indirect. Binding calls can cover weak binding; strength is not graded here.

Biological target: phosphoinositide 3-kinase (PI3K) (mouse (endogenous in primary Müller cells))
Test: co-IP; Müller cells lysed in RIPA buffer, pre-cleared with agarose beads, incubated overnight at 4 °C with specific primary antibody (anti-Hmga2 or anti-PI3K) or 1 µg IgG; immunoprecipitates analysed by immunoblotting

binding: binds
B1: Hmga2 (protein used in biolayer interferometry) (natural protein, UniProt P52927 1-108, looked up)
chain: MSARGEGAGQPSTSAQGQPAAPVPQKRGRGRPRKQQQEPTCEPSPKRPRGRPKGSKNKSPSKAAQKKAETIGEKRPRGRPRKWPQQVVQKKPAQETEETSSQESAEED
notes: Hmga2 as used in the biolayer interferometry assay; The main text has no methods for the BLI experiment
